The data set is described as follows: general procedure: Boc solid-phase peptide synthesis; MBHA resin; DCC. Conditions: whole synthesis, scale 2.4 mmoles.

Strings that start with PEPTIDE1 are HELM notation: dots part the residues, brackets hold end groups and non-standard residues.

As for “PEPTIDE1{[ac].[Tyr(SO3H)].M.[dA].W.M.D.F.[am]}$$$$V2.0”, the crude mass was found to be 2.0 g.

These data come from patent publication US4490364A (The Salk Institute for Biological Studies, priority 1983, dated 1984).
